Consider 47 sequences from the supplement of paper PMC7877785.

± gives the uncertainty stated by the source. Many entries were measured with a wide error.

The data set is described as follows: self-splicing fitness, log relative to wild type (ln ratio); higher = more splicing; Tetrahymena group I intron in knt gene, E. coli kanamycin selection, DiMSum; sequences stand for … in CUCUCU…GGAGGGAAAAGUUAUCAGGCAUGCACCUGGUAGCUAGUCUUUAAACCAAUAGAUUGCAUCGGUUUAAAAGGCAAGACCGUCAAAUUGCGGGAAAGGGGUCAACAGCCGUUCAGUACCAAGUCUCAGGGGAAACUUUGAGAUGGCCUUGCAAAGGGUAUGGUAAUAAGCUGACGGACAUGGUCCUAACCACGCAGCCAAGUCCUAAGUCAACAGAUCUUCUGUUGAUAUGGAUGCAGUUCACAGACUAAAUGUCGGUCGGGGAAGAUGUAUUCUUCUCAUAAGAUAUAGUCGGACCUCUCCUUAAUGGGAGCUAGCGGAUGAAGUGAUGCAACACUGGAGCCGCUGGGAACUAAUUUGUAUGCGAAAGUAUAUUGAUUAGUUUUGGAGUACUCGUGGUCG
A digest of the protocol:
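Pooled colonies went to amplicon sequencing on an Illumina HiSeq 2500 after six replicate transformations. The plates were LB agar with 100 μg/mL carbenicillin, 50 μM IPTG and 0.2% rhamnose, with or without 25 μg/mL kanamycin, incubated overnight at 37°C or 30°C. The E. coli BL21(DE3) library had all eight P1ex-region intron nucleotides randomised, the intron placed in the knt kanamycin-resistance gene on pET-22b(+). DiMSum fitness is the error-weighted combination of replicate fold changes, kanamycin against none, normalised to wild type.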

For the sequence GUAAAGCAAUAUUACGGAGC, the “self-splicing fitness (ln)” value (30 °C) is -2.47 ± 0.2 and the “self-splicing fitness (ln)” value (37 °C) was -1.71 ± 0.21.
Consider UAAGAGCAAUAUUACGUAUC, for which the “self-splicing fitness (ln)” value is -4.69 ± 1 (30 °C) and -2.67 ± 1.1 (37 °C).
The matching figures for AAGCAGCAAUAUUACGAAUU: -0.851 ± 0.069 and 0.12 ± 0.099.
With CUGAAGCAAUAUUACGCCGA, the “self-splicing fitness (ln)” value (37 °C) was -3.03 ± 0.54.
For the sequence CUAAAGCAAUAUUACGUCUC, under “30 °C”, the “self-splicing fitness (ln)” value is -4.49 ± 0.72.
UGGAAGCAAUAUUACGGGCC: the “self-splicing fitness (ln)” value (30 °C) is -4.05 ± 1.
As to GGCUAGCAAUAUUACGCCUA, the “self-splicing fitness (ln)” value is, setting by setting: (30 °C) -0.205 ± 0.23; (37 °C) -1.69 ± 0.3.
On to UCGCAGCAAUAUUACGAGCC, for which the “self-splicing fitness (ln)” value reads like this: (30 °C) -2.98 ± 0.5; (37 °C) -2.47 ± 0.76.
CCCGAGCAAUAUUACGUACC: the “self-splicing fitness (ln)” value (37 °C) is -2.64 ± 0.77.
In the case of ACGGAGCAAUAUUACGGCAA, the “self-splicing fitness (ln)” value runs as follows: (30 °C) -2.98 ± 0.3; (37 °C) -2.61 ± 0.27.
For the sequence UCGGAGCAAUAUUACGUCUU, the “self-splicing fitness (ln)” value (30 °C) was -3.48 ± 1.1.
For UCGCAGCAAUAUUACGUCGC, where the note is “37 °C”, the “self-splicing fitness (ln)” value was -3.7 ± 0.51.
Still for that read-out and setting: the value for GUCAAGCAAUAUUACGGGAC was -3.99 ± 0.51.
Turning to UAUUAGCAAUAUUACGAAGC, the “self-splicing fitness (ln)” value is -1.93 ± 1.2 (30 °C) and -0.778 ± 1.4 (37 °C).
The matching figures for AACGAGCAAUAUUACGCAUG: -4.23 ± 0.31 and -2.76 ± 0.29.
The matching figures for CGGCAGCAAUAUUACGUUAU: -2.5 ± 0.17 and -2.56 ± 0.21.
Consider UCCGAGCAAUAUUACGACAA, for which the “self-splicing fitness (ln)” value (37 °C) is -1.3 ± 0.52.
As for GGCUAGCAAUAUUACGUUAC, the “self-splicing fitness (ln)” value was -1.55 ± 0.069 (30 °C) and -0.888 ± 0.093 (37 °C).
In the case of UGGGAGCAAUAUUACGAGAC, the “self-splicing fitness (ln)” value (30 °C) was -2.57 ± 0.63 and the “self-splicing fitness (ln)” value (37 °C) is -1.69 ± 0.82.
As for UGUGAGCAAUAUUACGUAAU, where the note is “30 °C”, the “self-splicing fitness (ln)” value was -4.75 ± 0.72.
Consider AGUAAGCAAUAUUACGUUAG, for which the “self-splicing fitness (ln)” value (37 °C) is -2.91 ± 0.74.
In the case of UGAGAGCAAUAUUACGGGCC, the “self-splicing fitness (ln)” value (30 °C) is -2.77 ± 1.1 and the “self-splicing fitness (ln)” value (37 °C) is -1.64 ± 0.6.
With CGUUAGCAAUAUUACGAAGA, the “self-splicing fitness (ln)” value (37 °C) was -1.1 ± 0.63.
CAUUAGCAAUAUUACGACUC: the “self-splicing fitness (ln)” value is -3.48 ± 1.1 (30 °C) and -1.74 ± 0.59 (37 °C).
Turning to CAGGAGCAAUAUUACGCUUC, the “self-splicing fitness (ln)” value is -2.76 ± 0.77 (30 °C) and -2.45 ± 0.76 (37 °C).
In the case of UUGAAGCAAUAUUACGCGAU, the “self-splicing fitness (ln)” value (37 °C) is -2.36 ± 0.55.
In the case of UCGUAGCAAUAUUACGUCCC, the “self-splicing fitness (ln)” value (37 °C) is -0.836 ± 0.56.
Consider UCUGAGCAAUAUUACGUACG, for which the “self-splicing fitness (ln)” value (30 °C) is -2.21 ± 0.79.
With GGAGAGCAAUAUUACGUACA, the “self-splicing fitness (ln)” value (30 °C) is -4.04 ± 0.6.
Same read-out and setting: then CUUCAGCAAUAUUACGCCUA, with -2.73 ± 0.56.
As for GAGUAGCAAUAUUACGACCC, where the note is “37 °C”, the “self-splicing fitness (ln)” value was -0.998 ± 0.59.
On to UGAGAGCAAUAUUACGAUGA, for which, where the note is “30 °C”, the “self-splicing fitness (ln)” value is -2.65 ± 0.79.
ACAGAGCAAUAUUACGGGAC: the “self-splicing fitness (ln)” value (37 °C) is -2.06 ± 0.6.
Regarding GAGUAGCAAUAUUACGUGUG, the “self-splicing fitness (ln)” value runs as follows: (30 °C) -2.73 ± 0.11; (37 °C) -1.87 ± 0.12.
For the sequence AUGUAGCAAUAUUACGUCGC, the “self-splicing fitness (ln)” value (30 °C) is -3.47 ± 0.6.
On to UGUUAGCAAUAUUACGAUGA, for which the “self-splicing fitness (ln)” value was -0.408 ± 0.09 (30 °C) and -1.06 ± 0.092 (37 °C).
The matching figures for GGAUAGCAAUAUUACGGUCG: -0.0227 ± 0.077 and 0.199 ± 0.094.
Regarding GUGGAGCAAUAUUACGCAGG, under “30 °C”, the “self-splicing fitness (ln)” value is -3.8 ± 0.52.
Consider UCGUAGCAAUAUUACGCCUC, for which the “self-splicing fitness (ln)” value (30 °C) was -2.81 ± 1.1.
For UAUGAGCAAUAUUACGGUCC, the “self-splicing fitness (ln)” value (30 °C) is -4.4 ± 1 and the “self-splicing fitness (ln)” value (37 °C) was -2.08 ± 1.1.
As for CUACAGCAAUAUUACGUUGC, the “self-splicing fitness (ln)” value is -3.67 ± 0.23 (30 °C) and -2.82 ± 0.21 (37 °C).
GUGAAGCAAUAUUACGGGCC: the “self-splicing fitness (ln)” value (37 °C) was -2.82 ± 0.61.
UCUUAGCAAUAUUACGGCAC: the “self-splicing fitness (ln)” value is, setting by setting: (30 °C) -2.28 ± 0.58; (37 °C) -1.45 ± 0.6.
In the case of UUGGAGCAAUAUUACGCCGC, the “self-splicing fitness (ln)” value (30 °C) was -2.65 ± 1.1.
For the sequence UCGGAGCAAUAUUACGUACC, the “self-splicing fitness (ln)” value (37 °C) was -2.35 ± 0.77.
As for CGCGAGCAAUAUUACGUUCC, the “self-splicing fitness (ln)” value (37 °C) was -3.64 ± 1.
Regarding GAGCAGCAAUAUUACGCCUC, the “self-splicing fitness (ln)” value (30 °C) is -2.37 ± 0.64 and the “self-splicing fitness (ln)” value (37 °C) is -2.67 ± 1.1.
